The values below come from PMC2529310.

Protein sequences, listed by entry. Tags and fused reporters are not part of them.
UniProt P03372, whole entry: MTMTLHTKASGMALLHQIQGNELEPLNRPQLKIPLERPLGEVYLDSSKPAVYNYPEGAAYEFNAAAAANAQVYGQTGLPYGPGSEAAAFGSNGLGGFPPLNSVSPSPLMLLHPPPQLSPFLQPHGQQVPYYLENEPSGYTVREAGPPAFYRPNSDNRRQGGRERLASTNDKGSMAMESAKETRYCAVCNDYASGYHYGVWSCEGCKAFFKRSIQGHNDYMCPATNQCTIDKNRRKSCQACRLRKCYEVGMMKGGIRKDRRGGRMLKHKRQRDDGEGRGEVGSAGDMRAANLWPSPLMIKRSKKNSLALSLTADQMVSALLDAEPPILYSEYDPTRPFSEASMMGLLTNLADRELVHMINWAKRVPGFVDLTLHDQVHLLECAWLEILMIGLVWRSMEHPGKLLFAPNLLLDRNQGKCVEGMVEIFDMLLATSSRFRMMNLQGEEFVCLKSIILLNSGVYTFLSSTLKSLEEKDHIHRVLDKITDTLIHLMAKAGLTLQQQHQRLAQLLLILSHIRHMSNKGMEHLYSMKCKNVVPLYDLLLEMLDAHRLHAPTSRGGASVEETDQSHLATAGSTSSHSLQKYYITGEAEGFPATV
UniProt Q92731, whole entry: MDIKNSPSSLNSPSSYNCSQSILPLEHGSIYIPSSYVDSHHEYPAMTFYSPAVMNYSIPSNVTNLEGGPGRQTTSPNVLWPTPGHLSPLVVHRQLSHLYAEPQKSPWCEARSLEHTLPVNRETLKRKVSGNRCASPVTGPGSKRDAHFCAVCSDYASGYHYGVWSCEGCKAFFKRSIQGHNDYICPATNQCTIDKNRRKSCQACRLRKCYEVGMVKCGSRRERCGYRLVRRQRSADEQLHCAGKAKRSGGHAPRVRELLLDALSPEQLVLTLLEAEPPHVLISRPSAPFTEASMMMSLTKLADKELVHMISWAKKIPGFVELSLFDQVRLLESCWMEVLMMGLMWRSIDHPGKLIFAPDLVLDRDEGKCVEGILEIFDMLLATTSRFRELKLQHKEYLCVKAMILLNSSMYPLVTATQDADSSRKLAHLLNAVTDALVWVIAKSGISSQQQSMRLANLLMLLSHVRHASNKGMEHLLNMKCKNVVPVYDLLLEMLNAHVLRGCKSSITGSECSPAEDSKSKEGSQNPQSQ

Construct, isoform or probe ends are uncertain for at least one entry. For some assays here: No signal at the amounts used counts as a negative. For some assays here: Tags and fusion partners may be left off the protein sequences shown. For some assays here: At least one verdict was read from the data and is not stated in words by the source.

For series [1], the system named is lamprey ER (lampER) (Petromyzon marinus). As to the kind of experiment: EMSA. Particulars: EMSA as previously described (ref 93); pH and temperature not given; in vitro translated proteins in reticulocyte lysate; protein translated in vitro; label: 32P. (A gel shift assay detects complexes by their altered migration in electrophoresis.)
The target of series [2] is human ERα (Homo sapiens) (UniProt P03372). As to the kind of experiment: EMSA. Particulars: EMSA as previously described (ref 93); pH and temperature not given; in vitro translated proteins in reticulocyte lysate; protein translated in vitro; label: 32P.
In series [3] the target is human ERβ (Homo sapiens) (UniProt Q92731). As to the kind of experiment: EMSA. The note with it: EMSA as previously described (ref 93); pH and temperature not given; in vitro translated proteins in reticulocyte lysate; protein translated in vitro; label: 32P.
The subject of series [4] is lamprey ER (lampER) (Petromyzon marinus). As to the kind of experiment: competition with a labelled probe. Particulars: 100-fold excess vs labeled ERE; EMSA as previously described (ref 93); pH and temperature not given; in vitro translated proteins in reticulocyte lysate; protein translated in vitro; label: none (unlabeled competitor).
The target in series [5] is T1, amphioxus ER (amphiER) (Branchiostoma floridae) (UniProt B3V8B7).
T1 sequence (looked up): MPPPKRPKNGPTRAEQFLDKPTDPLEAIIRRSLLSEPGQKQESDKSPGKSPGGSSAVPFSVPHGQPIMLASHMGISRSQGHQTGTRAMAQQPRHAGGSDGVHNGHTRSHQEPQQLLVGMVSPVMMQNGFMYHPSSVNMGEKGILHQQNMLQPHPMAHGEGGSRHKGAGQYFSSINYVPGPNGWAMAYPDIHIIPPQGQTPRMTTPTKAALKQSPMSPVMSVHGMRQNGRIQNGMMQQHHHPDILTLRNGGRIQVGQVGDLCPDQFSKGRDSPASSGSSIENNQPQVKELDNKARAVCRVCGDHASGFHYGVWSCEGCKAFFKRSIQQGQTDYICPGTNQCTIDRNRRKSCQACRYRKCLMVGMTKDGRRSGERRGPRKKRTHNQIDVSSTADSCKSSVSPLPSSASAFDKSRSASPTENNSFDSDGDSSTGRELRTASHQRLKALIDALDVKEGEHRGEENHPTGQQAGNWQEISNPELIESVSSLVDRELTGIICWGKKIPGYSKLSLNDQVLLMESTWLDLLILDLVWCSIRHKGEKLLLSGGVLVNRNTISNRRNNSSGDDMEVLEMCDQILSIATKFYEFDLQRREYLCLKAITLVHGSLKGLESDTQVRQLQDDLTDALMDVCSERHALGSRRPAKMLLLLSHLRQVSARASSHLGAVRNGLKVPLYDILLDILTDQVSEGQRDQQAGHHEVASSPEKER
As to the kind of experiment: competition with a labelled probe. The note with it: 100-fold excess vs labeled ERE; EMSA as previously described (ref 93); pH and temperature not given; in vitro translated proteins in reticulocyte lysate; protein translated in vitro; residues 1-705; label: none (unlabeled competitor).

Regarding “CGGGCCGAGGTCACAGTGACCTCGGCCCGT (double strand) [consensus ERE]”, the binding result in series [1], in series [2] and in series [3] was “binds” each time.
As to “CTAGTCCTAGGTCTAGAGAATTCA (double strand) [non-related probe (NS competitor)]”, the binding result in series [4] and in series [5] was “no binding” throughout.
